# This is one part of the list.
# Chains of the proteins cited; added tags and fusions are not shown. Lines headed by an entry give the natural chain unless they say otherwise; changes in a name come on top.
# UniProt P04075: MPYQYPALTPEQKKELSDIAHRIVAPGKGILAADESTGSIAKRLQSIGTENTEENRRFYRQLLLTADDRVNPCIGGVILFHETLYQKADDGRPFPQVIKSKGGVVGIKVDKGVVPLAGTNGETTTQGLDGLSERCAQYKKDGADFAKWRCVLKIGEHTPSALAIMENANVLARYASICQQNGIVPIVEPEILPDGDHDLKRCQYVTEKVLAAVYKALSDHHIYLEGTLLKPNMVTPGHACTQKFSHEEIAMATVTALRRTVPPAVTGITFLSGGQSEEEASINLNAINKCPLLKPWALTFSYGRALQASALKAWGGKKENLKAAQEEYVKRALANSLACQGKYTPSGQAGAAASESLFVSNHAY
# UniProt Q01433: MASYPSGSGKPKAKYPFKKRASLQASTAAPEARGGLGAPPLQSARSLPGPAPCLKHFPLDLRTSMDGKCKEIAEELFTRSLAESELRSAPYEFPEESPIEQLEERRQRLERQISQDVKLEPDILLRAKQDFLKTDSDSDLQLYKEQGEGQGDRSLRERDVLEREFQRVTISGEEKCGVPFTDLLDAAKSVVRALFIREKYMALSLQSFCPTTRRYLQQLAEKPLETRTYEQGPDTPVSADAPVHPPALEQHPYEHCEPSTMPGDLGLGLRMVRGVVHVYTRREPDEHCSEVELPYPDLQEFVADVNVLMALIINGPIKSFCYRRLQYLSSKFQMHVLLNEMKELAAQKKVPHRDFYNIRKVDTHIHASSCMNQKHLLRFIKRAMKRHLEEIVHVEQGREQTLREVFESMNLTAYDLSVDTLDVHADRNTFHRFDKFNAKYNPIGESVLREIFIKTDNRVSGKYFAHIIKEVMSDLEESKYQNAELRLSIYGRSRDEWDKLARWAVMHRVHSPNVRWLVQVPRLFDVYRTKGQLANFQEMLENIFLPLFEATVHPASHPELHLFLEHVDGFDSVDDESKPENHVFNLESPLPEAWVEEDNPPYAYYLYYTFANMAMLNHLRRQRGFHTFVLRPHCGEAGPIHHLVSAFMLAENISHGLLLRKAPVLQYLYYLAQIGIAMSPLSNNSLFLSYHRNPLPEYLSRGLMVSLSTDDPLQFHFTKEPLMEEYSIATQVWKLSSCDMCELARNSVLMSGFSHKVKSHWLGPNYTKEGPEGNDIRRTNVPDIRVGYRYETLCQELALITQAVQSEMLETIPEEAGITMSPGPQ
# UniProt Q9UPM8: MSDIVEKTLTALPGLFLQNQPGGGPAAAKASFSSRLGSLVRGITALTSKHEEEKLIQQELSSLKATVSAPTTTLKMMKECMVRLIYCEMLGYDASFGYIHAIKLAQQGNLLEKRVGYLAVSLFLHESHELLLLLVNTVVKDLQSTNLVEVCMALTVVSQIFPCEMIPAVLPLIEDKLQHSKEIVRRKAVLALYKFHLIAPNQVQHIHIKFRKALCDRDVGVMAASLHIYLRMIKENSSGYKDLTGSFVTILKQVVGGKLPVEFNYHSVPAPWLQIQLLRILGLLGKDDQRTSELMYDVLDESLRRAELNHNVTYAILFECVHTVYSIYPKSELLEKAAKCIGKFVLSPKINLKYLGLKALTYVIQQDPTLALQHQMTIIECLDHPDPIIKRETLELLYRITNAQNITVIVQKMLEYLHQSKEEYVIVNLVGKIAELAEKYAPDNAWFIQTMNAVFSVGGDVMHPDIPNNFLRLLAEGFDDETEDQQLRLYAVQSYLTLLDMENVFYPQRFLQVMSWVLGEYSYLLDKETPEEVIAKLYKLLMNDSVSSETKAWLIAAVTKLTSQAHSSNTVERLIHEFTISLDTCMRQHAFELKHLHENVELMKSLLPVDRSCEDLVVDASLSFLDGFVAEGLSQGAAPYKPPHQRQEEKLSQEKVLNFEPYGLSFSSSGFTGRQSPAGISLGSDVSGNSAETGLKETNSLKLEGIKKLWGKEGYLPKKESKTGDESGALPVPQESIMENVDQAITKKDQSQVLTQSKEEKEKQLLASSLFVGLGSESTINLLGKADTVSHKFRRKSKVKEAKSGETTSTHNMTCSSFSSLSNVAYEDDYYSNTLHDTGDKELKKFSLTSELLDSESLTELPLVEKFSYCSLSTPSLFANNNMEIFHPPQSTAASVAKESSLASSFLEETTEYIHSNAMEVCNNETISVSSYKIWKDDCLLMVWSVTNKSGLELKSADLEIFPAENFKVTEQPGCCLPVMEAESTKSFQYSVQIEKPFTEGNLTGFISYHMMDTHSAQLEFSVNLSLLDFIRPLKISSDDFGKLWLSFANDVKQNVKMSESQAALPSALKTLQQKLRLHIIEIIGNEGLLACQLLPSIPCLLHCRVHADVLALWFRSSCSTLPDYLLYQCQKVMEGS
# UniProt P31749: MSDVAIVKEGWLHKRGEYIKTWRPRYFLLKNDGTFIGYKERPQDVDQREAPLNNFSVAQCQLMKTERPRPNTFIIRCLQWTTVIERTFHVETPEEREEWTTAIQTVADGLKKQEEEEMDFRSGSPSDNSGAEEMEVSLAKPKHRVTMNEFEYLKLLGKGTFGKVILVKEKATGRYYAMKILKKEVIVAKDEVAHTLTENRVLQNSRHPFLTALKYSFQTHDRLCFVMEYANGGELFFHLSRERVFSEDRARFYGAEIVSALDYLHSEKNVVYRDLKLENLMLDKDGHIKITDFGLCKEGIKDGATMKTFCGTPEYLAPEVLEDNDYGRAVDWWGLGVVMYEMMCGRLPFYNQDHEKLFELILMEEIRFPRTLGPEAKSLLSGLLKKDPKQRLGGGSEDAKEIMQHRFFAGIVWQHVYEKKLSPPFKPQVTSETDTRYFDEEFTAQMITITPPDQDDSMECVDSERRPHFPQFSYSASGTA
# UniProt Q8IWZ3: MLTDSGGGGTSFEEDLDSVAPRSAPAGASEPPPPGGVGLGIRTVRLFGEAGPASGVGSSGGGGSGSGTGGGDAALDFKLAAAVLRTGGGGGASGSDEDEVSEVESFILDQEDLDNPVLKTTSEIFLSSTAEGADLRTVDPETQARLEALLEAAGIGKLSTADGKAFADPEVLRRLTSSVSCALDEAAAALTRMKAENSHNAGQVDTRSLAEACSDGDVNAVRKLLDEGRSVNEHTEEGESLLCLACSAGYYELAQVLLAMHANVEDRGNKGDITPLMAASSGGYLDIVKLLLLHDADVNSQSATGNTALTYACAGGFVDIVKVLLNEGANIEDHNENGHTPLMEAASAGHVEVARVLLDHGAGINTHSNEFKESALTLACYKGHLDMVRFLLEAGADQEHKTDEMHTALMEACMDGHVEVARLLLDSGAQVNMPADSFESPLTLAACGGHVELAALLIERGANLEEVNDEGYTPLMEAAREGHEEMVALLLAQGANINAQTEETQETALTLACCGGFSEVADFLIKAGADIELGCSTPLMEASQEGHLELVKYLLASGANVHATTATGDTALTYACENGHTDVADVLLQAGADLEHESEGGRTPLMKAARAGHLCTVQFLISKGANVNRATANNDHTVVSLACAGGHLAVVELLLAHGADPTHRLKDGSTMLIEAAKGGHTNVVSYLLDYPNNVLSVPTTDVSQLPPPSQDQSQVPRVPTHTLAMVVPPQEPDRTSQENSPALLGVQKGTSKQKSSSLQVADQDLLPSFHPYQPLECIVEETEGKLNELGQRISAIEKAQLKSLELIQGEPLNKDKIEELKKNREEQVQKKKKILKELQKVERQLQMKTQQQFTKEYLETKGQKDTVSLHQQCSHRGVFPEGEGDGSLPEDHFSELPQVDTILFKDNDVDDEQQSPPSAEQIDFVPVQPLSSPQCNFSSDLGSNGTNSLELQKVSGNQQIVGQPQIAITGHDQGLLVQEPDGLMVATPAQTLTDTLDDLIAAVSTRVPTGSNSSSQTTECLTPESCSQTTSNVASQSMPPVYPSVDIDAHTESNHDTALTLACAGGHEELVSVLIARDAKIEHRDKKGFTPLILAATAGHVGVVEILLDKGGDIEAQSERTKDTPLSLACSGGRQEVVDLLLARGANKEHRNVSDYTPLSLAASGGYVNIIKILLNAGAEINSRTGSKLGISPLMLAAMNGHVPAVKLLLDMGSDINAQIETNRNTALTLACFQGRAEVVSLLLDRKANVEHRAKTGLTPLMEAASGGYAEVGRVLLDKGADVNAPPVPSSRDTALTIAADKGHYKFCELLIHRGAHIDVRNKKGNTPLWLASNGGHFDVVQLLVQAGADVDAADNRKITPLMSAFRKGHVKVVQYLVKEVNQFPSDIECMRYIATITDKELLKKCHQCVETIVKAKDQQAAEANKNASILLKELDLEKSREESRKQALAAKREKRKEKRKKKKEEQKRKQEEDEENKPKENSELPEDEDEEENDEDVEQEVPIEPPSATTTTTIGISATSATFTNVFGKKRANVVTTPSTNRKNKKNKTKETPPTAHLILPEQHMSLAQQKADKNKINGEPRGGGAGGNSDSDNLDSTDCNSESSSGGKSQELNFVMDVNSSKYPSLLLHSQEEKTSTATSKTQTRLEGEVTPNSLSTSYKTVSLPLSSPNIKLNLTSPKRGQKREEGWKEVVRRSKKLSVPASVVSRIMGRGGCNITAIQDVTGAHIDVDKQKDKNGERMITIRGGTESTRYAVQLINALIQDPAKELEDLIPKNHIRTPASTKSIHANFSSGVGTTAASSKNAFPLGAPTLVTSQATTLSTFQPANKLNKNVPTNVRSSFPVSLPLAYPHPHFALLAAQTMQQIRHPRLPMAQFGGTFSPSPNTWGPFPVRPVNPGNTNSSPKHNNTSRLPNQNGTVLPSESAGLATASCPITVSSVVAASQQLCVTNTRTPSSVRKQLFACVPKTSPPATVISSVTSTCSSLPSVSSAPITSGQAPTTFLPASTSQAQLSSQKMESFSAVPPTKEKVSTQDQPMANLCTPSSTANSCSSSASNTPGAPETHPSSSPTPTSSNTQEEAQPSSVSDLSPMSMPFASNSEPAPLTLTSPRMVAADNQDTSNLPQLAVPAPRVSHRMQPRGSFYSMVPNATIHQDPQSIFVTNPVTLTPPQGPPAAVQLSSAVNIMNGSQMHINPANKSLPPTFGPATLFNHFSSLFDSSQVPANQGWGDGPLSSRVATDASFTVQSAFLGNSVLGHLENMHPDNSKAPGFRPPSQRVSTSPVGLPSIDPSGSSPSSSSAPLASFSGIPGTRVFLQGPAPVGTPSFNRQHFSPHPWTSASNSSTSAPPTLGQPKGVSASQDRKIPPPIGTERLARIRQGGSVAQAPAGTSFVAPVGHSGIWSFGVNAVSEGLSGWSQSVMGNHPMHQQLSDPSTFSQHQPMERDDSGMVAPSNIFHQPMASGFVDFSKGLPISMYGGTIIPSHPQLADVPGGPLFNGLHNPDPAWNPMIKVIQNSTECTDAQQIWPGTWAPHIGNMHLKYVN
# UniProt Q96BT7: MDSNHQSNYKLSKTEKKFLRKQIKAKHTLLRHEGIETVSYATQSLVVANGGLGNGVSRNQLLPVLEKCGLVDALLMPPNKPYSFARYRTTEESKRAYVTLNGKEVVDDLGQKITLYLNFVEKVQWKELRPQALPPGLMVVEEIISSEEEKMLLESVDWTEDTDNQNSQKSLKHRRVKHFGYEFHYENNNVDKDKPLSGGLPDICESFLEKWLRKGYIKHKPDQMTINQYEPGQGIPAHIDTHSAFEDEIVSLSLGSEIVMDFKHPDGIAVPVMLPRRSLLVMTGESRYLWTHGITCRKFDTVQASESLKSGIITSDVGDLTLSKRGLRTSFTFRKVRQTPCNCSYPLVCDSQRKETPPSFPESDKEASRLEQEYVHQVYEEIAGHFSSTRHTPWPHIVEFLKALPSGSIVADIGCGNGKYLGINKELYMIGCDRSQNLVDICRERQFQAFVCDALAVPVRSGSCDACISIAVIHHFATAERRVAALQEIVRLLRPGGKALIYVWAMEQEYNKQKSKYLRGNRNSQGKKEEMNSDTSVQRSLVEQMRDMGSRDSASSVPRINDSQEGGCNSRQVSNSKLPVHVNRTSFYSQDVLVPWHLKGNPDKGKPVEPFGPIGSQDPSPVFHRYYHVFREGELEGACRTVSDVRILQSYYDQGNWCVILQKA
# UniProt P51649: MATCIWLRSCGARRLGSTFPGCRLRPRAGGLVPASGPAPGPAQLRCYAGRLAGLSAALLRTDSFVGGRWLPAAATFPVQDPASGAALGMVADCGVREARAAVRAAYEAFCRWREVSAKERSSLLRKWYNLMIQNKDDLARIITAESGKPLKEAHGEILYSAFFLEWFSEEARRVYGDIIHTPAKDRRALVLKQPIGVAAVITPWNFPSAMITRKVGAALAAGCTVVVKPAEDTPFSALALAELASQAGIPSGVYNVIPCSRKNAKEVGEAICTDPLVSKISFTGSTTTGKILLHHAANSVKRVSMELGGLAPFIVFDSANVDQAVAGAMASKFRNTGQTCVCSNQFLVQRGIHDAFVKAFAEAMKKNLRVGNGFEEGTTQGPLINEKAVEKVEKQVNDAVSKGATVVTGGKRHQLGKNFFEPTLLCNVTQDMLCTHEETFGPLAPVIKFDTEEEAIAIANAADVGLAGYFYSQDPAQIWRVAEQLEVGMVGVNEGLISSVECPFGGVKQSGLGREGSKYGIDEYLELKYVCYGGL
# Compound: CC(C)C1=C2N=C(C=C(N2N=C1)NCC3=CC=CC=C3)NCCCCCCN
# Assay: log2 fold change, soluble protein after heating vs DMSO (PISA); higher = thermal stabilisation; K562 lysate, 10 uM; active = over 0.2 and 3.5 SD of the protein, either way, in both replicates (recomputed)
# Procedure, shortened: (§1)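 K562 pellets were dounce-homogenised in PBS pH 7.4 containing 1 mM MgCl2, and the crude extract, at 1 mg/mL protein, was exposed to 10 μM compound for 30 min. Aliquots were heated for 3 min across 48°C-58°C, pooled, brought to 0.5% NP-40 at 4°C and spun at 21,000xg for 90 min, with the supernatant taken as soluble protein. TMTpro 16plex LC-MS/MS with equalised channel sums quantified that protein. Values are log-two fold changes in thermal stability relative to solvent controls, taken from duplicates.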
row,Target,log2 fold change
1,ALDOA (UniProt P04075),inactive: 0.012
2,ANXA2 (UniProt H0YL33),inactive: -0.353
3,AMPD2 (UniProt Q01433),inactive: -0.028
4,AP4E1 (UniProt Q9UPM8),inactive: 0.038
5,AKT1 (UniProt P31749),inactive: 0.009
6,AP1G1 isoform 2 (UniProt O43747),inactive: -0.036
7,ANKHD1 isoform 6 (UniProt Q8IWZ3),inactive: 0.006
8,ANXA1 (UniProt P04083),inactive: 0.005
9,ALKBH8 isoform 4 (UniProt Q96BT7),inactive: 0.046
10,AMD1 (UniProt P17707),inactive: -0.054
11,ANLN (UniProt Q9NQW6),inactive: -0.014
12,ALDH5A1 isoform 2 (UniProt P51649),inactive: -0.019

# Compound: CC1=C(C(CC(=O)N1)C2=CC=C(C=C2)C(F)(F)F)C(=O)NC3=C(C=C4C(=C3)C=NN4)F
# Assay: as above
# Procedure, shortened: as §1
row,Target,log2 fold change
1,AP1S2 isoform 2 (UniProt P56377),inactive: -0.034
2,ANAPC10 (UniProt Q9UM13),inactive: -0.007
3,ANKRD13D isoform 3 (UniProt Q6ZTN6),inactive: 0.094
4,AP3D1 isoform 5 (UniProt O14617),inactive: -0.014
5,ALKBH2 (UniProt Q6NS38),inactive: 0.03
6,AP3S1 (UniProt Q92572),inactive: -0.061
7,ALDH6A1 (UniProt Q02252),inactive: -0.088
8,ANGEL2 (UniProt Q5VTE6),inactive: 0.027
9,ALS2 (UniProt Q96Q42),inactive: -0.034
10,AKT2 (UniProt P31751),inactive: 0.011
11,ANXA2 isoform 2 (UniProt P07355),inactive: 0.006
12,ANP32A (UniProt P39687),inactive: -0.029
13,ANTXR2 isoform 4 (UniProt P58335),inactive: 0.003
14,AP3B2 isoform 4 (UniProt Q13367),inactive: 0.008
15,ALDH18A1 (UniProt P54886),inactive: -0.02
16,ANKRD54 (UniProt Q6NXT1),inactive: 0.003
17,ALG2 (UniProt Q9H553),inactive: 0.017

row,Target,log2 fold change
1,ALDH4A1 (UniProt P30038),inactive: -0.014
2,ALDH1A1 (UniProt P00352),inactive: 0
3,ANKRD52 (UniProt Q8NB46),inactive: 0.007
4,ANXA7 (UniProt P20073),inactive: -0.024
5,AMPD3 isoform 4 (UniProt Q01432),inactive: -0.029
6,ALDOA (UniProt P04075),inactive: -0.032
7,ANXA2 (UniProt H0YL33),inactive: 0.033
8,AMPD2 (UniProt Q01433),inactive: -0.009
9,AP4E1 (UniProt Q9UPM8),inactive: 0.035
10,AKT1 (UniProt P31749),inactive: 0.003
11,AP1G1 isoform 2 (UniProt O43747),inactive: -0.022
12,ANKHD1 isoform 6 (UniProt Q8IWZ3),inactive: 0.025
13,ANXA1 (UniProt P04083),inactive: -0.01
14,ALKBH8 isoform 4 (UniProt Q96BT7),inactive: 0.032
15,AMD1 (UniProt P17707),inactive: 0.019
16,ANLN (UniProt Q9NQW6),inactive: 0.02
17,ALDH5A1 isoform 2 (UniProt P51649),inactive: -0.01

# Compound: CC1=C(C2=C(C=C1)C(=O)C3=CC=CC=C3N2CCCN)C
# Assay: as above
# Procedure, shortened: as §1
row,Target,log2 fold change
1,AP1S2 isoform 2 (UniProt P56377),inactive: 0
2,ANAPC10 (UniProt Q9UM13),inactive: -0.001
3,ANKRD13D isoform 3 (UniProt Q6ZTN6),inactive: 0.047
4,AP3D1 isoform 5 (UniProt O14617),inactive: -0.024
5,ALKBH2 (UniProt Q6NS38),inactive: 0.022
6,AP3S1 (UniProt Q92572),inactive: 0.012
7,ALDH6A1 (UniProt Q02252),inactive: -0.191
8,ANGEL2 (UniProt Q5VTE6),inactive: -0.033
9,ALS2 (UniProt Q96Q42),inactive: -0.026
10,AKT2 (UniProt P31751),inactive: 0.007
11,ANXA2 isoform 2 (UniProt P07355),inactive: 0.048
12,ANP32A (UniProt P39687),inactive: 0.079
13,ANTXR2 isoform 4 (UniProt P58335),inactive: -0.011
14,AP3B2 isoform 4 (UniProt Q13367),inactive: 0.003
15,ALDH18A1 (UniProt P54886),inactive: 0.001
16,ANKRD54 (UniProt Q6NXT1),inactive: 0.001
17,ALG2 (UniProt Q9H553),inactive: -0.09

row,Target,log2 fold change
1,ALDH4A1 (UniProt P30038),inactive: -0.088
2,ALDH1A1 (UniProt P00352),active: 0.26
3,ANKRD52 (UniProt Q8NB46),inactive: -0.058
4,ANXA7 (UniProt P20073),inactive: 0.012
5,AMPD3 isoform 4 (UniProt Q01432),inactive: 0.011
6,ALDOA (UniProt P04075),inactive: 0.012
7,ANXA2 (UniProt H0YL33),inactive: 0.025
8,AMPD2 (UniProt Q01433),inactive: 0.01
9,AP4E1 (UniProt Q9UPM8),inactive: 0.006
10,AKT1 (UniProt P31749),inactive: -0.009
11,AP1G1 isoform 2 (UniProt O43747),inactive: 0.008
12,ANKHD1 isoform 6 (UniProt Q8IWZ3),inactive: -0.023
13,ANXA1 (UniProt P04083),inactive: 0.03
14,ALKBH8 isoform 4 (UniProt Q96BT7),inactive: -0.073
15,AMD1 (UniProt P17707),inactive: -0.015
16,ANLN (UniProt Q9NQW6),inactive: -0.01
17,ALDH5A1 isoform 2 (UniProt P51649),inactive: 0.001
